In publication PMC7819943, “Rice protein-binding microarrays: a tool to detect cis-acting elements near promoter regions in rice”:
The other results are listed elsewhere or left out.

Sequences of proteins named here, by UniProt entry; tags and fusion partners are left off.
UniProt Q0JBA9, entry or part of it: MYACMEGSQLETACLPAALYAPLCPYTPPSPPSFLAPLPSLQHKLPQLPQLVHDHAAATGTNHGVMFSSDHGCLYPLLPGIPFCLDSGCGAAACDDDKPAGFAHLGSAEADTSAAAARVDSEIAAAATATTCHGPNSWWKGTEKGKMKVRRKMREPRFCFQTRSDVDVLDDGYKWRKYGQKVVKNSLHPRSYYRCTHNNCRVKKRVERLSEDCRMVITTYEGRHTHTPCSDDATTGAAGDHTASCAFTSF

Molecular target: OsWRKY34 (Oryza sativa, UniProt Q0JBA9 1-250)
Test: protein-binding microarray (RPBM); PBS, 2% BSA, 51.3 ng/ul salmon testes DNA, 50 uM zinc acetate, 200 nM TF, 25 C, 1 h; high values mean tight binding
Conditions: protein: recombinant; tags: N-terminal polyhistidine and DsRed monomer fusion (pET32a); label: CyDye5-dUTP incorporated in the synthesized complementary strand; 3' TTTTT single-stranded linker to array surface; dsDNA, one strand shown
Method in brief: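 An Axon 4000B scanner gave the binding signal as per-feature fluorescence intensity in arbitrary units. This followed washing of a custom Agilent array that had been incubated for 1 h at 25 °C with 200 nM protein in PBS, 2% BSA, salmon testes DNA and 50 µM zinc acetate. The proteins were transcription factors fused at the N-terminus to polyhistidine and DsRed, expressed in E. coli BL21-CodonPlus and purified on Ni–NTA.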

Sequence	binding signal
CCTATGCCTGAGCCGTACTTGTGCCGTTGTGCGGTTAATCCGGAGTCACCTAGTGCAG	10200 fluorescence intensity (a.u.)
TATAAATGAGATAGCCCACATAGCAGCGCTGCCGTTTCTCCGGAGTCACCTAGTGCAG	8800 fluorescence intensity (a.u.)
ACCGACTGACTCATAATCTCTTCTCCTTGCTCTCTAGTTTCGGAGTCACCTAGTGCAG	8790 fluorescence intensity (a.u.)
GACCACCAAGAGAAAGACCGGAGTCACCAGCACTGACCACCGGAGTCACCTAGTGCAG	8450 fluorescence intensity (a.u.)
TGTGTGGTAGTTCGGGGTGGACCTACTTCTAATTATTGGGCGGAGTCACCTAGTGCAG	14100 fluorescence intensity (a.u.)
TGAGATGATGTGTGTTGTTCATTGTGCTTGTGTTGGAGATCGGAGTCACCTAGTGCAG	8830 fluorescence intensity (a.u.)
ACTACAGCTAAAGCACGCTGCTTTTCTTTTTTTTTCATTACGGAGTCACCTAGTGCAG	9940 fluorescence intensity (a.u.)
ACTTTATGCGTGACTTGTCTTTTTAATTTTTTTCATATTCCGGAGTCACCTAGTGCAG	12200 fluorescence intensity (a.u.)
AGTGCGCGTGGGTGGGTGTGCGTGTTGTAGCTCTTTCATGCGGAGTCACCTAGTGCAG	11200 fluorescence intensity (a.u.)
TACAACCAAGTCTGACAAACACTACTGCTATGGCTTCTTTCGGAGTCACCTAGTGCAG	9190 fluorescence intensity (a.u.)
CTCTAGCTCTACGTGAACACCTTGGCCGTCATCAAATCCGCGGAGTCACCTAGTGCAG	9800 fluorescence intensity (a.u.)
TTTTCGATTCTCTCCACTCCTGTGTTCACCATCGTCCTTACGGAGTCACCTAGTGCAG	11600 fluorescence intensity (a.u.)
CTCTCCACCTCGCGAGATCTAATCCCAATTCCCAACCTCACGGAGTCACCTAGTGCAG	9400 fluorescence intensity (a.u.)
CCTCTCCTTTCCATTGTTGCTCCGCTCGGATTCCGCTCTTCGGAGTCACCTAGTGCAG	9200 fluorescence intensity (a.u.)
GCCAGTTAGCCTAATTCTGCCTATAAATACACGGGCAAATCGGAGTCACCTAGTGCAG	8130 fluorescence intensity (a.u.)
ATCTTACTGTCTTTCCTTATCTTCTTGGTTGCTGTATCAGCGGAGTCACCTAGTGCAG	9600 fluorescence intensity (a.u.)
CCTCCCTTTCTCATAGTTCCAGTGTTATTTTTATTCTCTCCGGAGTCACCTAGTGCAG	8260 fluorescence intensity (a.u.)
CCAACTTTTTCATCACATTATTCCAATTTCAACCAAACCTCGGAGTCACCTAGTGCAG	9010 fluorescence intensity (a.u.)
ATCATTGGTAGCCGCATTTGTTGTTCTTTCGTTCATCATGCGGAGTCACCTAGTGCAG	12200 fluorescence intensity (a.u.)
ACTACGTATATTTTTATGTACTTCAATTCTCTACTATTATCGGAGTCACCTAGTGCAG	8330 fluorescence intensity (a.u.)
GATCGTTTAGTTCTGTCCTTTTTTGTTGGTTTCTTGGGGACGGAGTCACCTAGTGCAG	10700 fluorescence intensity (a.u.)
TACTACTAGTTTTCTTTCTTGGCCATCATCATTTGTTCCTCGGAGTCACCTAGTGCAG	9860 fluorescence intensity (a.u.)
GGATGACAACGCACACACTGTTAGGCCTCCTTTGGAACACCGGAGTCACCTAGTGCAG	8050 fluorescence intensity (a.u.)
TTTCGGCCGTGGCTCGTCTTCTGCGCGCCGGTGTTGATCTCGGAGTCACCTAGTGCAG	8290 fluorescence intensity (a.u.)
GCTTCTTCATCGATCGCCATCGTCTTCTCCAGTCCTCATGCGGAGTCACCTAGTGCAG	12600 fluorescence intensity (a.u.)
AAGTTGGACTTTCTTTTCTTTCTTTATTTACCTTTTTTTGCGGAGTCACCTAGTGCAG	8700 fluorescence intensity (a.u.)
TTTTTTCAACATGAGTCCCACGATTCGATTTAACACTACACGGAGTCACCTAGTGCAG	8070 fluorescence intensity (a.u.)

Given bar-delimited: entries from further up.
Sequence | binding signal
CCAACTTTTTCATCACATTATTCCAATTTCAACCAAACCTCGGAGTCACCTAGTGCAG | 9010 fluorescence intensity (a.u.)
ATCATTGGTAGCCGCATTTGTTGTTCTTTCGTTCATCATGCGGAGTCACCTAGTGCAG | 12200 fluorescence intensity (a.u.)
ACTACGTATATTTTTATGTACTTCAATTCTCTACTATTATCGGAGTCACCTAGTGCAG | 8330 fluorescence intensity (a.u.)
GATCGTTTAGTTCTGTCCTTTTTTGTTGGTTTCTTGGGGACGGAGTCACCTAGTGCAG | 10700 fluorescence intensity (a.u.)

The results go on:

Sequence	binding signal
CCCTTCTCTCTCTCTCTCTCTCTCTCTCTCTCTCTCTCTCCGGAGTCACCTAGTGCAG	11500 fluorescence intensity (a.u.)
ACAAGTCAACACCACCATGCAATCTCCATGCTAGCCAAAACGGAGTCACCTAGTGCAG	9440 fluorescence intensity (a.u.)
TGTTCGTCGGTGACTTGTTCGTACGGTTATGTGTGTCTGTCGGAGTCACCTAGTGCAG	13000 fluorescence intensity (a.u.)
ACTACTCTACGTCATCGTCAAAATGTGTATAAACACAATCCGGAGTCACCTAGTGCAG	9110 fluorescence intensity (a.u.)
TTTCTCTTCAAGCTCACTTTTCTTGTGATGTGTTCACATTCGGAGTCACCTAGTGCAG	8210 fluorescence intensity (a.u.)
TGTTTTATGTGTTTTTTCTATTTCTTAAATTTTTTTTCATCGGAGTCACCTAGTGCAG	12700 fluorescence intensity (a.u.)
TACATGTTTGACTTTGACTTGGTTTTTGGATATTTCATTTCGGAGTCACCTAGTGCAG	9170 fluorescence intensity (a.u.)
AACGTTAAGCACGGAAACCAGGGTTTGTCTTTTTTCCTTTCGGAGTCACCTAGTGCAG	8480 fluorescence intensity (a.u.)
CATTCATTTCATCACCAGTTTTCCCTGGACCAAAAATCCACGGAGTCACCTAGTGCAG	8710 fluorescence intensity (a.u.)
GTCTCAATGTCTCACCATTTGGCAACTGTTGTTTTGATCGCGGAGTCACCTAGTGCAG	10400 fluorescence intensity (a.u.)
TGGCACTCAAGATGGGGCGATTTTCTGGTTTTCTTCATTCCGGAGTCACCTAGTGCAG	9130 fluorescence intensity (a.u.)
GCATCGCTCGGCCAGAGATTCTCCTACAGTCGTACTGCCTCGGAGTCACCTAGTGCAG	8450 fluorescence intensity (a.u.)
TGCTACCACCTGCTGCCTGCATTTAATCACCGACCTTACACGGAGTCACCTAGTGCAG	9750 fluorescence intensity (a.u.)
TGCTTCCGTCTTTCGGCGCAACACTGTCCATCAGATCCTGCGGAGTCACCTAGTGCAG	9750 fluorescence intensity (a.u.)
TGTTTGTCGTGACTTAGCTTAGTTGTTGCTGTTGTTGAGCCGGAGTCACCTAGTGCAG	10500 fluorescence intensity (a.u.)
CATACCATATTTGTGGATACACTTTGTACATAGGCCGTGTCGGAGTCACCTAGTGCAG	8340 fluorescence intensity (a.u.)
GCTCACCATCGTCACACTGGCTCACTGCTGCATTCCGCATCGGAGTCACCTAGTGCAG	9740 fluorescence intensity (a.u.)
GAGGCACAGAAACTGTCATCCTTGGCCATTGCTAGCTGCTCGGAGTCACCTAGTGCAG	9480 fluorescence intensity (a.u.)
GACCAGTCTAGTTCCAGTGCATCTCACTTCTCGCACCTCGCGGAGTCACCTAGTGCAG	10700 fluorescence intensity (a.u.)
ACCGTTTTCATCCACTCCAGTCGACCAAAGCATCAAAATACGGAGTCACCTAGTGCAG	9640 fluorescence intensity (a.u.)
ATGGTGTTTTTTTGCCTATTCAAAGCATTATGTGATGTTTCGGAGTCACCTAGTGCAG	10100 fluorescence intensity (a.u.)
GGAGTGATCCTCCTTTTGTCTCTCCTGCAGTATTTCTTAACGGAGTCACCTAGTGCAG	8970 fluorescence intensity (a.u.)
CCACACACCAAACCCTCTGTCCTCCGGCCGGTTCATCTTGCGGAGTCACCTAGTGCAG	8410 fluorescence intensity (a.u.)
ATATATTTTGGGATGTATCTAGTCTTTTTTTTTGGTTGACCGGAGTCACCTAGTGCAG	8700 fluorescence intensity (a.u.)
TCTTCCACTAAATCTCATCACACACTCCACACCTTTCTGCCGGAGTCACCTAGTGCAG	9040 fluorescence intensity (a.u.)
GTTTCACAGGAACTAGGTTAACATTTTCACGAGTCTTTTCCGGAGTCACCTAGTGCAG	8140 fluorescence intensity (a.u.)
AGAGTATTTGCATTTTTTTTGGGCTTTTAACTATTTGCCACGGAGTCACCTAGTGCAG	9540 fluorescence intensity (a.u.)
